Measured values: PubChem BioAssay AID540276 (National Center for Advancing Translational Sciences (NCATS), 2011)
“And” between values parts separate entries of the source, which are not always exact repeats. Equal entries are not always repeated. The whole screen tested about 300,000 compounds, of which about 5,400 (1.8%) were called active. The inconclusive results got no clear call from the source; some entries with a clear call stand among them for comparison. Calls follow the shape of the full dose curve; tested in HEK293 cells. Potencies of inconclusive entries are doubtful fits and often do not repeat.

Assay: qHTS for inhibitors of binding or entry into cells for Marburg Virus
Settings: Marburg virus pseudotyped entry inhibition, cell reporter; activity change, negative = inhibition: at 37.8 µM (top of the series) unless noted
% is scaled to controls: 0 for no effect and ±100 for the full control effect; potency is read from the fitted curve at half-maximal effect.

Row | Compound | Potency | activity change, negative = inhibition
1 | O=C(NCc1ccccc1)c1cnc(-c2ccccn2)nc1C(F)(F)F | inconclusive: 5.62 µM [activator, single point] | 
2 | Cc1ccc(-c2csc(NC(=O)CSc3nnc4c(n3)[nH]c3ccccc34)n2)cc1 | inconclusive: 17.8 µM [inhibitor, partial curve, poor fit] | 
3 | CCOc1ccc2nc(N3CCC(C(=O)N4CCN(C5CCCCC5)CC4)CC3)sc2c1 |  | inactive: 10.6%
4 | O=C(COC(=O)Cc1ccc([N+](=O)[O-])cc1)NCc1ccc2c(c1)OCO2 |  | inactive: -1.52%
5 | Cc1cccc(-c2nnc3n2N=C(c2ccccc2)CS3)c1 | inactive | 
6 | O=c1cc(N2CCC3(CC2)OCCO3)[nH]c(=O)n1-c1ccc(Br)cc1 |  | inactive: 3.46%
7 | Fc1ccc(Nc2nc(-c3ccc(F)cc3)c3c(n2)-c2ccccc2OC3)cc1 |  | inactive: -29.9% [at 46.1 µM]
8 | CN1CCN(CCNC(=O)c2ccc3nc(-c4ccc(F)cc4)c(-c4ccc(F)cc4)nc3c2)CC1 | inconclusive: 0.562 µM [inhibitor, full curve, poor fit] | 
9 | Cc1ccc(C(=O)OCC(=O)Nc2sc3c(c2C#N)CCCC3)cc1NC(=O)c1ccco1 | inconclusive: 3.16 µM [activator, single point] | 
10 | O=C1CCCc2c1cc(C(=O)O)c(=O)n2-c1ccccc1 |  | inactive: 4.74% [at 46.1 µM]
11 | CSc1nc(C)cc(Nc2cccc(C(=O)O)c2)n1 | inconclusive: 7.94 µM [activator, partial curve, poor fit] | 
12 | Cc1nn(CC(=O)NCCc2ccc(Cl)cc2Cl)c(C)c1[N+](=O)[O-] | inconclusive: 8.91 µM [inhibitor, partial curve] | 
13 | O=C(NC(=S)NNC(=O)c1ccccc1O)c1cccc([N+](=O)[O-])c1 | inconclusive: 5.62 µM [activator, single point] | 
14 | CCOC(=O)C(C)Nc1ncnc2onc(C)c12 (stereo not given) | inconclusive: 3.55 µM [activator, full curve, poor fit] | 
15 | COc1cc(C=O)ccc1OCCOCCOc1ccc(Cl)cc1 | inconclusive: 0.708 µM [activator, single point] | 
16 | COc1ccc(Cl)cc1NC(=O)c1cc2nc(-c3ccc(C)cc3)cc(C(F)(F)F)n2n1 | inconclusive: 6.31 µM [inhibitor, single point] | 
17 | Cc1cc(Br)ccc1NC(=O)C(NS(=O)(=O)c1cccs1)c1ccccc1 (stereo not given) | inconclusive: 10 µM [inhibitor, single point] | 
18 | CC(Sc1nnc(-c2cccs2)n1Cc1ccccc1)C(=O)NCc1ccc2c(c1)OCO2 (stereo not given) |  | inactive: 1.43%
19 | COc1cc2nc(N3CCN(C(=O)C4COc5ccccc5O4)CC3)nc(N)c2cc1OC (stereo not given) | active: 8.91 µM and active: 11.6 µM | 
20 | O=C(Nc1cccn2ncnc12)c1ccc(Cl)cc1Cl |  | inactive: 2.49%
21 | CC(=O)c1ccc2c(c1)OCCOCCOCCO2 | inconclusive: 8.91 µM [activator, partial curve, poor fit] | 
22 | O=C(NC(=S)NNC(=O)c1ccccc1O)c1ccccc1 |  | inactive: -13.1% [at 46.1 µM]
23 | COc1ccc(C2NC(=O)NC(C)=C2C(=O)OCc2ccccc2)cc1 (stereo not given) | inconclusive: 35.5 µM [inhibitor, single point] | 
24 | COc1ccccc1Nc1cc(C)nc2c(C)ccc([N+](=O)[O-])c12 | inconclusive: 35.5 µM [inhibitor, single point] | 

Row | Compound | Potency | activity change, negative = inhibition
25 | CCNS(=O)(=O)c1ccc(CCC(=O)Nc2ccc3c(c2)OCO3)cc1 | inconclusive: 1.58 µM [inhibitor, partial curve, poor fit] | 
26 | N#CC(C#N)=Cc1cc2ccccc2nc1N1CCCCC1 | inconclusive: 12.6 µM [inhibitor, single point] | 
27 | Cc1nn(C(C)C(=O)NCc2ccccc2Cl)c(=O)c2c1sc1ccccc12 (stereo not given) | inconclusive: 29.1 µM [inhibitor, single point] | 
28 | C=CCNc1nc(Cl)nc(Nc2ccc(OC)cc2)n1 | inconclusive: 29.1 µM [inhibitor, single point] | 
29 | Cc1ccc(NC(=O)CN2C(=S)NC(C)(C)CC2C)cc1Cl (stereo not given) | inconclusive: 35.5 µM [inhibitor, single point] | 
30 | CN(C)CCCN(C(=O)c1sc2ccccc2c1Cl)c1nc2c(F)cccc2s1 |  | inactive: -1.4%
31 | CN(C)CCOC(=O)c1ccc2[nH]c3c(c2c1)CSCC3 | inconclusive: 35.5 µM [inhibitor, single point] | 
32 | O=C(CSc1nnc(Cc2ccccc2)o1)c1ccc(F)cc1 |  | inactive: -1.03% [at 46.1 µM]
33 | CC(=O)Nc1cccc(-c2nnc(-c3ccccc3)o2)c1 | inconclusive: 3.98 µM [activator, full curve, poor fit] | 
34 | Cc1cc(C)nc(Nc2n[nH]c(-c3ccc(N)cc3)n2)n1 |  | inactive: -1.35%
35 | COC(=O)c1cc(NC(=S)Nc2cc(Cl)cc(Cl)c2)cc(C(=O)OC)c1 |  | inactive: 22.7%
36 | CCOC(=O)c1csc(NC(C)=O)n1 | inconclusive: 12.6 µM [activator, single point] | 
37 | Cc1ccc([N+](=O)[O-])cc1N/C=C/C(=O)c1ccco1 | inconclusive: 16.4 µM [inhibitor, partial curve, poor fit] | 
38 | COc1cccc(CN(C)C(=O)C2CCN(S(=O)(=O)c3ccc(C)cc3)CC2)c1OC | inconclusive: 1.26 µM [inhibitor, single point] | 
39 | CCNC(=S)N/N=C/c1ccc(OCC(=O)Nc2ccc(C)cc2)cc1 | inconclusive: 13 µM [inhibitor, partial curve, poor fit] | 
40 | COC(=O)c1ccc(CNC(=O)CCc2c[nH]c3ccccc23)cc1 |  | inactive: 3.5% [at 46.1 µM]
41 | CN(C)Cc1c(C(=O)N/N=C/c2ccccc2OCc2c(F)cccc2Cl)nnn1-c1nonc1N | inconclusive: 12.6 µM [inhibitor, partial curve, poor fit] | 
42 | CCn1cc(C(=O)N2CCCC(CO)(Cc3ccccc3C)C2)cn1 (stereo not given) |  | inactive: 9.32% [at 46.1 µM]
43 | Cc1cccc(Cn2c(C)c(C)c3cc(C(=O)NCCN4CCOCC4)ccc32)c1 | inconclusive: 7.08 µM [inhibitor, full curve] | 
44 | CC12C=C(C=Cc3ccc(Br)cc3)C(C)(C1)[C@H](c1ccc(Br)cc1)CC2=O (stereo not given in full) |  | inactive: -26.3% [at 14.2 µM]
45 | COc1cccc(/C=N/Nc2nnc(C)n2N)c1OCc1ccccc1Cl |  | inactive: 3.02%
46 | CC(CC(=O)Nc1ccccc1C(F)(F)F)c1ccccc1 (stereo not given) | inconclusive: 25.1 µM [inhibitor, single point] | 
47 | Cc1cccc(C(=O)Nc2ccc3c(c2)nc(C)n3C)c1 | inconclusive: 0.316 µM [activator, full curve, poor fit] | 
48 | CC(C)CSc1nsc(N)n1 |  | inactive: 14.8%

Filtered by structure: the compounds so far containing a nitro group on carbon.
Row | Compound | Potency | activity change, negative = inhibition
4 | O=C(COC(=O)Cc1ccc([N+](=O)[O-])cc1)NCc1ccc2c(c1)OCO2 |  | inactive: -1.52%
12 | Cc1nn(CC(=O)NCCc2ccc(Cl)cc2Cl)c(C)c1[N+](=O)[O-] | inconclusive: 8.91 µM [inhibitor, partial curve] | 
13 | O=C(NC(=S)NNC(=O)c1ccccc1O)c1cccc([N+](=O)[O-])c1 | inconclusive: 5.62 µM [activator, single point] | 
24 | COc1ccccc1Nc1cc(C)nc2c(C)ccc([N+](=O)[O-])c12 | inconclusive: 35.5 µM [inhibitor, single point] | 
37 | Cc1ccc([N+](=O)[O-])cc1N/C=C/C(=O)c1ccco1 | inconclusive: 16.4 µM [inhibitor, partial curve, poor fit] | 

(listing goes on)

Row | Compound | Potency | activity change, negative = inhibition
49 | CCn1nc([N+](=O)[O-])c(C(C#N)c2nc3ccccc3n2C)c(Cl)c1=O (stereo not given) |  | inactive: -28.3%
50 | O=C(O)CSc1nc2ccc(Cl)cc2[nH]1 | inconclusive: 0.708 µM [activator, partial curve, poor fit] | 
51 | CN(C)c1ccc(C(=S)N2CCN(C(=S)Nc3cccc4ccccc34)CC2)cc1 |  | inactive: -14.6%
52 | O=C1CCCc2c1cc(-c1ccccc1)n2-c1ccccc1 | inconclusive: 0.517 µM [inhibitor, single point] | 
53 | Cc1ccc2[nH]c(=O)c(CN(Cc3cccs3)C(=S)NCC3CCCO3)cc2c1 (stereo not given) | inconclusive: 7.94 µM [inhibitor, partial curve] | 
54 | Cc1cc(C)c2oc(C(=O)N(Cc3ccccc3)C3CCS(=O)(=O)C3)cc(=O)c2c1 (stereo not given) | inconclusive: 35.5 µM [inhibitor, single point] | 
55 | N=c1c2c3c(sc2ncn1CCCO)CCCC3 | inconclusive: 5.62 µM [activator, single point] | 
56 | Cn1ccnc1SCC(=O)c1cc2ccccc2o1 |  | inactive: 26.3%
57 | CCCCN(Cc1ccco1)C(=O)C1CCCN(c2ncnc3c2nc2n3CCCCC2)C1 (stereo not given) | inconclusive: 7.08 µM [inhibitor, full curve, poor fit] | 
58 | CC(C)c1ccccc1NC1=CC(=O)CC(C)(C)C1 | inconclusive: 0.562 µM [activator, full curve] | 
59 | Cc1nnc(NC(=O)CSc2nnc(CNC(=O)c3ccc(F)cc3)o2)s1 | inconclusive: 7.08 µM [activator, partial curve, poor fit] | 
60 | Cc1cc(C)cc(NC(=O)CN(c2cccc(C)c2C)S(=O)(=O)c2ccccc2)c1 | inconclusive: 10 µM [inhibitor, partial curve, poor fit] | 
61 | CCOc1cccc(=O)c2c(C)n(CC(=O)c3ccccc3)c(C)c12 |  | inactive: -22.5% [at 46.1 µM]
62 | COc1ccc(N(C(=O)c2snc(C(N)=O)c2N)C(C(=O)NC2CCCC2)c2cccs2)cc1OC (stereo not given) |  | inactive: -17.7% [at 46.1 µM]
63 | CCc1cc2c(=O)c(-c3nc4ccccc4n3C)c(COCC(=O)O)oc2cc1O |  | inactive: -7.62%
64 | CC(=O)c1ccc(NC(=O)CSc2nnc(-c3ccncc3)n2C2CC2)cc1 | inconclusive: 0.631 µM [inhibitor, partial curve, poor fit] | 
65 | O=C(Cn1cccc1C(=O)c1ccccc1)NCc1cccc(Cl)c1 |  | inactive: 14.5%
66 | CCc1ccc(S(=O)(=O)Nc2cccc(-c3ccc4nncn4n3)c2)s1 | inconclusive: 10 µM [inhibitor, partial curve, poor fit] | 
67 | CCc1cc[n+](C2=C([O-])c3ccccc3C(=O)/C2=N\S(=O)(=O)c2cccs2)cc1 | active: 7.08 µM | 
68 | CC1=C(C(=O)OC2CCCC2)C(c2ccc(Cl)cc2)CC(=O)N1 (stereo not given) | inconclusive: 35.5 µM [inhibitor, single point] | 
69 | COc1cc(NC(=O)C2CC(c3cccc(OC)c3OC)=NO2)cc(OC)c1OC (stereo not given) | inconclusive: 7.3 µM [inhibitor, partial curve, poor fit] | 
70 | CCOc1ccc(CCNC(=O)COC(=O)CSc2ccc(C)cc2)cc1OCC | inconclusive: 1.26 µM [activator, single point] | 
